According to paper PMC12670160, “A drug-repurposing screen of FDA- and EMA-approved drugs identifies two NF-κB inhibitors active against eumycetoma” (Journal of Antimicrobial Chemotherapy, 2025):
Counter-ions that a name gives are not always drawn. Like-named read-outs stand apart in the source and are kept apart here. Hit rate of the full screen: of about 5,300 compounds, about 130 (2.5%) showed an effect of 50% or more. Some of the results follow.

Test system: M. mycetomatis strain mm55
Settings: primary screen, metabolic activity vs growth control, 96 h, 2 µM, inhibitor

| Structure (SMILES) | % viability | % viability (Madurella mycetomatis metabolic activity at 2µM (%)) |
| --- | --- | --- |
| CCS(=O)(=O)CCn1c([N+](=O)[O-])cnc1C [ONC0004134, tinidazole] | 110.5% | – |
| O=C1CCc2cc(OCCCCc3nnnn3C3CCCCC3)ccc2N1 [ONC0004245, cilostazol] | 59.68% | – |
| CC(=O)N(CC(C)C(=O)O)c1c(I)cc(I)c(N)c1I (centres unmarked) [ONC0002944, iocetamicacid] | 59.58% | – |
| COc1ccc(OCC2c3cc(OC)c(OC)cc3CCN2C(=O)c2cccc(Cl)c2)cc1 (centres unmarked) [ONC0002470, ciq] | 70.64% | – |
| CC(=O)OCC1=C(C(=O)O)N2C(=O)[C@@H](NC(=O)CSc3ccncc3)[C@H]2SC1 [ONC0000719, cephapirin sodium] | 77.34% | – |
| O=C1OC2(c3ccc(O)cc3Oc3cc(O)ccc32)c2ccccc21 [ONC0004219, fluorescein] | 82.86% | – |
| C[C@H]1C[C@H]2[C@@H]3CCC4=CC(=O)CC[C@]4(C)[C@H]3C(=O)C[C@]2(C)[C@@]1(O)C(=O)CO [ONC0004828, betapar meprednisone] | 78.26% | – |
| CCCCCCCC/C=C\CCCCCCCC(=O)NCCc1ccc(O)c(O)c1 [ONC0001500, olda] | 114.1% | – |
| CC(Nc1ncnc2nc[nH]c12)c1cc2ccc(F)cc2nc1-c1ccccn1 (centres unmarked) [ONC0004426, amg319] | 156.7% | – |
| O=C1C(c2ccccn2)=[N+]([O-])c2ccccc21 [ONC0001887, pit tosylate] | 113.2% | – |
| CNc1nc(NCc2ccc(NS(C)(=O)=O)cc2Cl)cc(-c2ccccn2)n1 [ONC0003557, tcg1008] | 113.9% | – |
| CCCCCCCCc1ccc(CCC(N)(CO)CO)cc1 [ONC0005159, fingolimod fty720 hcl] | 130.1% | – |
| Nc1ncnc2c1c(-c1cccc(OCc3ccccc3)c1)cn2C1CC(CN2CCC2)C1 (centres unmarked) [ONC0005227] | 172.4% | – |
| C[C@]12CC[C@@H]3c4ccc(O)cc4CC[C@H]3[C@@H]1CCC2=O [ONC0000773, estrone] | 80.26% | – |
| c1ccc(N2CCN(Cc3nc4ccccc4[nH]3)CC2)nc1 [ONC0001520, abt724] | 87.74% | – |
| C[C@@H]1NC(C)(C)CO[C@@]1(O)c1cccc(Cl)c1 [ONC0001157, radafaxine hydrochloride] | 85.48% | – |
| COC(=O)c1c(-c2cc(OC)c(OC)c(OC)c2)c2ccnc(OCc3ncccn3)c2c(=O)n1Cc1ccnc(C)c1 [ONC0001287, t0156] | 86.64% | – |
| COc1cc(C(=O)NC2CCCNC2)cc(OC)c1OC (centres unmarked) [ONC0004799, troxipide] | 108.6% | – |
| CC(C)(S)C(N)C(=O)O (centres unmarked) [ONC0000482, penicillamine ethanolamine salt] | 72.35% | – |
| CN1CCC(COc2cnc(-c3cccc(Cn4nc(-c5cccc(C#N)c5)ccc4=O)c3)nc2)CC1 [ONC0002111, tepotinib] | 69.09% | – |
| O=S(=O)(N[C@H](CO)C(C(F)(F)F)C(F)(F)F)c1ccc(Cl)s1 [ONC0002115, begacestat] | 92.91% | – |

| Structure (SMILES) | % viability | % viability (Madurella mycetomatis metabolic activity at 2µM (%)) |
| --- | --- | --- |
| CC(C)c1cc(C(=O)N2Cc3ccc(CN4CCN(C)CC4)cc3C2)c(O)cc1O [ONC0004868, onalespib at13387] | 102.1% | – |
| CC1Oc2cc(cnc2N)-c2c(nn(C)c2C#N)CN(C)C(=O)c2ccc(F)cc21 (centres unmarked) [ONC0005163, pf06463922] | 67.6% | – |
| CCOC(=O)C1=C[C@]2(CC)CCCN3CCc4c(n1c1ccccc41)[C@@H]32 [ONC0002865, vinpocetine] | 109.8% | – |
| Cc1ccnc2c1CCCC2C(N)=S (centres unmarked) [ONC0003697, isotiquimide] | 106% | – |
| CNCCC(Oc1ccccc1OC)c1ccccc1 (centres unmarked) [ONC0001641, nisoxetine] | 70.74% | – |
| CCOc1ccc(S(=O)(=O)O)c2cccnc12 [ONC0004189, actinoquinol sodium] | 93.46% | – |
| Cn1cnnc1Sc1c([N+](=O)[O-])ncn1C [ONC0003606, mnitmt] | 130.1% | – |
| Cc1cccc(CN2CCN(C(c3ccccc3)c3ccc(Cl)cc3)CC2)c1 (centres unmarked) [ONC0000457, meclizine hydrochloride] | 74.07% | – |
| COc1cnc(NS(=O)(=O)c2ccc(N)cc2)nc1 [ONC0000635, sulfameter] | 120.1% | – |
| O=C(O)CCn1c2c(c3ccccc31)C[C@H](NS(=O)(=O)c1ccc(F)cc1)CC2 [ONC0000918, ramatroban] | 93.57% | – |
| O=C(O)CCC(=O)Nc1ccc(S(=O)(=O)Nc2nccs2)cc1 [ONC0000581, succinylsulfathiazole] | 107.1% | – |
| O=C1N=C(NCc2cccs2)S/C1=C\c1ccc2ncccc2c1 [ONC0001760, ro3306] | 79.85% | – |
| CCCCCCCN(CC)CCCC(O)c1ccc(NS(C)(=O)=O)cc1 (centres unmarked) [ONC0004875, ibutilide fumarate] | 79.19% | – |
| C=C1C[C@]23C[C@@]1(O)CC[C@H]2[C@@]12C=C[C@H](O)[C@@](C)(C(=O)O1)[C@H]2[C@@H]3C(=O)O [ONC0003464, gibberellic acid] | 70.49% | – |
| Cn1cc(C=C2C(=O)Nc3cccnc32)c2ccccc21 [ONC0004257, gw441756] | 60.77% | – |
| CCOc1ccc(-c2nc(-c3cccc4c3CCC4NCCO)no2)cc1OCC (centres unmarked) [ONC0001502, cym5442] | 91.21% | – |
| Cn1c(=O)cc(N2CCC[C@@H](N)C2)n(Cc2ccccc2C#N)c1=O [ONC0005292, alogliptin benzoate] | 73.26% | – |
| CC1(C)S[C@@H]2[C@H](NC(=O)[C@H](NC(=O)N3CCN(S(C)(=O)=O)C3=O)c3ccccc3)C(=O)N2[C@H]1C(=O)O [ONC0004361, mezlocillin sodium] | 94.17% | – |
| CS(=O)(=O)CCNCc1nc(-c2ccc3ncnc(Nc4ccc(OCc5cccc(F)c5)c(Cl)c4)c3c2)cs1 [ONC0000149, gw583340] | 73.7% | – |
| N=C(N)/N=C(\N)N1CCOCC1 [ONC0005372, moroxydine hydrochloride] | 114.7% | – |
| C[N+](C)(C)NCCC(=O)[O-] [ONC0003642, meldonium] | 57.83% | – |

A draw from above in order of formula weight, rising:

| Structure (SMILES) | % viability | % viability (Madurella mycetomatis metabolic activity at 2µM (%)) |
| --- | --- | --- |
| C[C@]12CC[C@@H]3c4ccc(O)cc4CC[C@H]3[C@@H]1CCC2=O [ONC0000773, estrone] | 80.26% | – |
| c1ccc(N2CCN(Cc3nc4ccccc4[nH]3)CC2)nc1 [ONC0001520, abt724] | 87.74% | – |
| CS(=O)(=O)CCNCc1nc(-c2ccc3ncnc(Nc4ccc(OCc5cccc(F)c5)c(Cl)c4)c3c2)cs1 [ONC0000149, gw583340] | 73.7% | – |

Next records follow:

| Structure (SMILES) | % viability | % viability (Madurella mycetomatis metabolic activity at 2µM (%)) |
| --- | --- | --- |
| COC(=O)NC(=S)Nc1ccccc1NC(=S)NC(=O)OC [ONC0002380, thiophanate methyl] | 60.95% | – |
| COc1ccc(-c2cc(=O)c3c(O)cc(O[C@@H]4O[C@H](CO[C@@H]5O[C@@H](C)[C@H](O)[C@@H](O)[C@H]5O)[C@@H](O)[C@H](O)[C@H]4O)cc3o2)cc1O [ONC0003167, diosmin] | 94.36% | – |
| CCCCNc1ncc2c(-c3ccc(CN4CCN(C)CC4)cc3)cn([C@H]3CC[C@H](O)CC3)c2n1 [ONC0001124, unc2025 hydrochloride] | 69.33% | – |
| COc1ccc(C(=O)c2ccc(C)cc2)c(O)c1 [ONC0005281, mexeneone] | 59.35% | – |
| CCCCCCCCCCCCCCCCCCCCCCCCCCCCO [ONC0002583, 1octacosanol] | 52.64% | – |
| O=C(O)CN1CCN(CC(=O)O)CCN(CC(=O)O)CCN(CC(=O)O)CC1 [ONC0005363, gadoteratemeglumine] | 111.7% | – |
| NC(=O)NC(=O)Cc1ccccc1 [ONC0000460, phenacemide] | 68.16% | – |
| COC1=C2C[C@@H](C)C[C@H](OC)[C@H](O)[C@@H](C)/C=C(\C)[C@H](OC(N)=O)[C@@H](OC)/C=C\C=C(/C)C(=O)NC(=CC1=O)C2=O [ONC0004394, geldanamycin] | 128.8% | – |
| CCCCC/N=c1/ccn(Cc2ccccc2)c2ccccc12 [ONC0001739, cp339818] | 63.89% | – |
| CCOC(=O)c1ncc2[nH]c3cccc(OC(C)C)c3c2c1C [ONC0001558, zk93426] | 103.6% | – |
| CCCCCCCCCCCCCCCC(=O)OC1C(SC)OC(C(NC(=O)C2CC(CCC)CN2C)C(C)Cl)C(O)C1O (centres unmarked) [ONC0004643, clindamycin palmitate hcl] | 84.71% | – |
| CNC(=O)Nc1ccc(-c2nc(N3CC4CCC(C3)O4)c3cnn(C4CCC5(CC4)OCCO5)c3n2)cc1 [ONC0004343, wye125132] | 112.1% | – |
| COC(=O)c1cc(OC)c2c(c1-c1c(CO)cc(OC)c3c1OCO3)OCO2 [ONC0002187, bicyclol] | 70.1% | – |
| COc1ccc(CNC(=O)c2cc(-c3cncc(C)c3)ncc2-c2nccs2)nc1OC [ONC0002387, mk3697] | 94.77% | – |
| CC(CN(C)C)CN1c2ccccc2Sc2ccccc21 (centres unmarked) [ONC0005525, trimeprazine] | – | 66.12% |
| CC(C)(C)NC(=O)N[C@H](C(=O)N1C[C@H]2[C@@H]([C@H]1C(=O)NC(CC1CCC1)C(=O)C(N)=O)C2(C)C)C(C)(C)C (some centres unmarked) [ONC0001071, boceprevir] | 43.8% | – |
| CCC(CC)CC1(C(=O)Nc2ccccc2SC(=O)C(C)C)CCCCC1 [ONC0005201, dalcetrapibü¾Œ¶„¼ü¾Ž†„¼jtt705ü¾Œ¶„¼] | 98.31% | – |
| CN1[C@@H](CC(=O)c2ccccc2)CCC[C@H]1C[C@H](O)c1ccccc1 [ONC0005605, lobeline hydrochloride] | 124.7% | – |
| Cn1cc(-c2ccc3nnc(C(F)(F)c4ccc5ncccc5c4)n3n2)cn1 [ONC0004892, jnj38877605] | 97.57% | – |
| c1ccc2[nH]c(-c3cscn3)nc2c1 [ONC0000541, thiabendazole] | 57.17% | – |
